For the data set, the system named is p53 exon 5 and exon 7 DNA fragments. Briefly: UvrABC incision of Acr-modified p53 DNA fragments with and without CpG methylation. The arrangement: species or system human. To be noted: p53 exon 5 and 7 fragments, SssI methylated.

SMILES strings stand for the structures. The amount applied is not stated for every result.

We go through 1 molecule from US20100196275A1, “Methods and products for neutralizing the harmful effects of combustion products” (priority 2006, published 2010).

As for `C=CC=O` [Acr, Acrolein], the “enhancement of UvrABC incision band intensity of Acr-DNA adducts at CpG-containing codons, methylated versus unmethylated” value is recorded as 2- to 4 fold.
